Laboratory results taken from patent US20220062371A1 (DEBIOPHARM RESEARCH & MANUFACTURING S.A., priority 2017, published 2022).
Strings that start with PEPTIDE1 are HELM notation: dots part the residues, brackets hold end groups and non-standard residues.

Assay: general procedure: Fmoc solid-phase peptide synthesis; Fmoc-Xxx-Wang resin (loading 0.60 mmol/g; Bachem); HBTU, HATU
Settings: whole synthesis

Compared with “PEPTIDE1{[Mal].[PEG4].F.K.K.F}|PEPTIDE2{[ac].C}|CHEM1{[Mal]}|CHEM2{[DM1]}$PEPTIDE1,PEPTIDE2,1:R3-2:R3|PEPTIDE1,CHEM1,5:R3-1:R2|CHEM1,CHEM2,1:R3-1:R1$$$V2.0”, “Arg-PEG4-Phe-Arg-Dab(CO-CPT)-Phe-OH (SEQ ID NO: 49)” is lower in “purity (crude or final not stated)” value: 94% for the first, 83% for the second.

Compared with AF-Cit-Lys(PEG4-Mal-Cys-Ac)-Phe-OH, “PEPTIDE1{[Mal].F.[Cit].K.F}|PEPTIDE2{[Mal].[PEG4]}|PEPTIDE3{[ac].C}|CHEM1{[DM1]}$PEPTIDE1,PEPTIDE2,4:R3-2:R2|PEPTIDE2,PEPTIDE3,1:R3-2:R3|PEPTIDE1,CHEM1,1:R3-1:R1$$$V2.0” is higher in “purity (crude or final not stated)” value: 90% for the first, 97% for the second.

Going from “Ma-PEG5-Phe-Cit-Lys(Mcc-DM1)-Cit-OH (SEQ ID NO: 60)” to “PEPTIDE1{[Mcc].F.[Cit].K.Y}|PEPTIDE2{[Ma].[PEG5]}|PEPTIDE3{[ac].C}|CHEM1{[DM1]}$PEPTIDE1,PEPTIDE2,4:R3-2:R2|PEPTIDE2,PEPTIDE3,1:R3-2:R3|PEPTIDE1,CHEM1,1:R3-1:R1$$$V2.0”, the “purity (crude or final not stated)” value rises from 97% to 99%.

Compared with AF-Arg-Phe-Lys(PEG4-Mal-Cys-Ac)-OH, AF-Arg-Lys(PEG4-Mal)-Phe-OH is higher in “purity (crude or final not stated)” value: 90% for the first, 96% for the second.

First: ACit-Phe-Lys(PEG4-Mal-Cys-Ac)-OH
Second: Ac-Cys-Mal-PEG4-Phe-Arg-Lys(Mal-DM1)-Arg-Lys(AF)-Phe-OH (SEQ ID NO: 64)
The “purity (crude or final not stated)” value of the first is higher: 96% for the first, 90% for the second.

Going from “Ac-Cys-Mal-PEG4-[Phe-Lys-Lys(Mal-DM1)-Phe]2-OH (SEQ ID NO: 63)” to Arg-PEG4-Phe-Arg-Glu(Sar-OCPT)-Phe-OH, the “purity (crude or final not stated)” value rises from 89% to 94%.

First: PEPTIDE1{[Mal].F.K.K.F}|PEPTIDE2{[Mal].[PEG4]}|PEPTIDE3{[ac].C}|CHEM1{[DM1]}$PEPTIDE1,PEPTIDE2,4:R3-2:R2|PEPTIDE2,PEPTIDE3,1:R3-2:R3|PEPTIDE1,CHEM1,1:R3-1:R1$$$V2.0
Second: Arg-PEG4-Phe-Arg-Dap(CO-CPT)-Phe-OH (SEQ ID NO: 48)
The “purity (crude or final not stated)” value of the first is higher: 98% for the first, 96% for the second.

“PEPTIDE1{[Mal].[PEG4].F.K.K.F.F.K}|PEPTIDE2{[ac].C}|CHEM1{[Mal]}|CHEM2{[DM1]}$PEPTIDE1,PEPTIDE2,1:R3-2:R3|PEPTIDE1,CHEM1,5:R3-1:R2|CHEM1,CHEM2,1:R3-1:R1$$$V2.0” and AF-Arg-Lys(PEG4-Mal-Cys-Ac)-Phe-OH are the same in “purity (crude or final not stated)” value: 94% for the first, 94% for the second.

Going from “Mal-PEG4-Phe-Lys-Lys(AF)-Phe-OH (SEQ ID NO: 53)” to “Ac-Cys-Mal-PEG4-Phe-Lys-Lys(AF)-Phe-OH (SEQ ID NO: 52)”, the “purity (crude or final not stated)” value rises from 95% to 98%.

First: Ac-Cys-Ma-PEG5-Phe-Cit-Lys(Mcc-DM1)-Tyr-OH (SEQ ID NO: 61)
Second: PEPTIDE1{[Mal].F.[Cit].F.K}|PEPTIDE2{[Mal].[PEG4]}|PEPTIDE3{[ac].C}|CHEM1{[DM1]}$PEPTIDE1,PEPTIDE2,5:R3-2:R2|PEPTIDE2,PEPTIDE3,1:R3-2:R3|PEPTIDE1,CHEM1,1:R3-1:R1$$$V2.0
The “purity (crude or final not stated)” value of the first is lower: 80% for the first, 94% for the second.

Compared with AF-Arg-Phe-Lys(PEG4-Mal)-OH, “Arg-PEG4-Phe-Arg-Ser(CO-CPT)-Phe-OH (SEQ ID NO: 50)” is lower in “purity (crude or final not stated)” value: 98% for the first, 90% for the second.

Going from “AF-Cit-Lys(Mal-DM1)-Phe-Lys(PEG4-Mal-Cys-Ac)-Phe-OH (SEQ ID NO: 65)” to “Ac-Cys-Mal-[PEG5-Lys(AF-Cit-Lys(Y)-Phe-OH)]2-Gly-NH2”, the “purity (crude or final not stated)” value falls from 89% to 85%.

With ACit-Lys(PEG4-Mal-Cys-Ac)-Phe-OH the “purity (crude or final not stated)” value was 96%.
